In the assay the target is T1, podoplanin (PDPN) expressed in lymphatic endothelial cells (human (endogenous in primary LECs)) (UniProt Q86YL7).
T1 sequence (chain, carries α2,3-sialylated glycans (bound by MAA II)): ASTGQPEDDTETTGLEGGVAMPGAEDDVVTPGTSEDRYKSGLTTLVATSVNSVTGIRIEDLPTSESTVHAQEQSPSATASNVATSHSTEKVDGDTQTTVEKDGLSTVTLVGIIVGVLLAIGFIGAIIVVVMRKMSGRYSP
In words: co-IP; anti-PDPN (clone E-1) on AminoLink Plus resin; lysates of serum-starved primary LECs, untreated or treated with galectin-8 for 15 min at 37 °C; IP buffer 25 mM Tris, 150 mM NaCl, 1 mM EDTA, 1% NP-40, 5% glycerol, pH 7.4; 4 °C overnight; western blot.

These are yes or no findings as the source states them, for the method shown. Binding seen in cells or lysates may run through a third protein. Binding can be weak; no strength is given.

The values that follow come from article PMC4832077.

With “integrin α5 (human (endogenous in primary LECs)) (receptor)”, the binding entry is “binds”.
With “integrin αv (human (endogenous in primary LECs)) (receptor)” the entry was “binds”.
